Laboratory results: publication PMC12040169 (PLOS Biology, 2025)
The other results are listed elsewhere or left out.

Each molecule was assayed on T1, CTL2-GFP (C. trachomatis L2/434/Bu, GFP-expressing). Settings: bulk GFP, single well; 28.5 h, 10 µM; inhibitor.
T1 construct: L2/434/Bu, GFP-expressing
Set-up: species or system HeLa; Intracellular C. trachomatis growth in HeLa cells, bulk GFP fluorescence relative to DMSO

Row | Structure (SMILES) | % of control remaining [%]
1 | CSc1ccccc1Nc1ncnc2n[nH]cc12 [CBK288099] | 137.003
2 | Oc1cc(C(F)(F)F)nc2[nH]nc(-c3cccs3)c12 [CBK008498] | 124.448
3 | CC(C)C(=O)Nc1nc2c(nc(OCc3ccccc3)n2C2CC(O)C(CO)O2)c(=O)[nH]1 (stereo not shown) [CBK201264] | 131.329
4 | Cc1nc(NC(=O)Cc2c(C)nn(CC(C)C)c2C)sc1-c1n[nH]c(=S)n1C [CBK296691] | 120.58
5 | O=C(Cc1ccc(Cl)c(Cl)c1)N1CCC2(CCN(C(=O)c3cc(F)c(F)cc3F)C2)C1 (stereo not shown) [CBK131386] | 121.396
6 | O=C(O)c1ccc(N2CC(C(=O)Nc3ccc(F)cc3)CC2=O)cc1 (stereo not shown) [CBK286794] | 116.824
7 | O=C(NCCCNc1ccc([N+](=O)[O-])cc1)c1cccs1 [CBK066825] | 104.568
8 | COc1ccc(S(=O)(=O)Nc2nccnc2-c2cccs2)cc1OC [CBK050774] | 92.6189
9 | Nc1cccc(-c2nccnc2N2CCCC2CO)c1 (stereo not shown) [CBK036786] | 106.135
10 | COc1ccc2c(Cl)c(C(=O)NCCc3ccc(S(N)(=O)=O)cc3)sc2c1 [CBK268120] | 125.695
11 | CC(=O)NCCC(=O)Nc1cc(C)ccc1C [CBK306115] | 130.787
12 | CNC(=O)c1sc2ccccc2c1C1CCN(Cc2ccc(OC)c(OC(C)C)c2)C1 (stereo not shown) [CBK285928] | 121.625
13 | COc1ccc(CCn2cncc2-c2cnn(C)c2)cc1C [CBK281457] | 101.492
14 | CC(=O)Nc1ccc2nc(Nc3nc4c(F)cc(F)cc4s3)sc2c1 [CBK287489] | 145.707
15 | O=C(NCCCN1CCCCC1)C1CC(=O)N(Cc2ccco2)C1 (stereo not shown) [CBK305145] | 107.312
16 | CCN(CC)CC(O)Cn1c(-c2cccc([N+](=O)[O-])c2)nc(=S)c2c1CCCC2 (stereo not shown) [CBK265700] | 111.351
17 | COCCNc1nc(-c2ccc3c(c2)OCO3)ccc1C(=O)N(C)CCN(C)C [CBK105915] | 109.21
18 | CCc1nc(CN2CCCC(NC(C(N)=O)c3ccccc3)C2)no1 (stereo not shown) [CBK305348] | 113.351
19 | COCc1nnc(Sc2nccnc2N2CCCC2)s1 [CBK093736] | 103.057
20 | CC(NC(=O)N(C)Cc1ccc2ccccc2n1)c1nncn1C(C)C (stereo not shown) [CBK307197] | 94.5983
21 | O=C(NCc1ccccc1)c1cccc(NC(=O)c2cc(-c3ccccn3)nc3ccc(Cl)cc23)c1 [CBK267768] | 149.321
22 | COCCCNC(=O)c1cnn2c(C)c(Cc3cccc(F)c3)c(C)nc12 [CBK162126] | 78.6522
23 | CC(CCc1ccccc1)NC(=O)C(C)Sc1nnc(-c2cccs2)n1C1CC1 (stereo not shown) [CBK297131] | 125.528
24 | O=C(CSc1oc(-c2ccco2)nc1S(=O)(=O)c1ccccc1)c1ccccc1 [CBK268424] | 128.471
25 | CC(=O)Nc1ccc(CN(C)c2c(C)nc3ccc(C(=O)N(C)CCN(C)C)cn23)cc1 [CBK147107] | 111.321

Row | Structure (SMILES) | % of control remaining [%]
26 | Cc1nnc(N/N=C\c2c(Cl)cccc2Cl)[nH]c1=O [CBK027921] | 112.007
27 | CC(C)(C)OC(=O)N1CCC(C2OCc3cc(-c4ccc(C(=O)N5CCOCC5)o4)ccc3O2)CC1 (stereo not shown) [CBK173615] | 111.946
28 | COc1ccc2[nH]cc(CCNC(=O)c3cc(-c4cccc(NC(C)=O)c4)cnc3N(C)S(C)(=O)=O)c2c1 [CBK076599] | 164.643
29 | C#CCN1CC[C@]2(c3ccc(OC)c(OC)c3)CC[C@@H](NC(=O)Nc3ccc(F)c(F)c3)C[C@H]12 [CBK056657] | 55.9504
30 | CC(C)C(=O)Nc1ccc2c(-c3ccccc3)ccnc2n1 [CBK073671] | 135.034
31 | O=C(O)C1CCCCN1S(=O)(=O)c1ccc(Br)cc1 (stereo not shown) [CBK101789] | 116.516
32 | Nc1ncc(-c2cccc3ncccc23)nc1N1CCC[C@@H]1CO [CBK063441] | 164.627
33 | Cc1cc(F)c(S(N)(=O)=O)cc1NC(=O)c1cccc(Br)c1 [CBK051488] | 83.3794
34 | O=C(Nc1cccc(Cl)c1Cl)c1cccs1 [CBK057672] | 88.5908
35 | CCOC(=O)C1CCN(S(=O)(=O)c2ccc(C(C)C)cc2)CC1 [CBK200044] | 100.831
36 | Oc1ccc(/C=N/Nc2nnc(-c3ccccc3)c(-c3ccccc3)n2)cc1 [CBK262011] | 116.871
37 | O=C(CN1CCC(c2ccc(F)cc2)CC1)NCc1ccco1 [CBK283641] | 109.94
38 | CN1CC(=O)N(c2ccc(Cl)cc2Cl)C1=O [CBK116319] | 111.487
39 | COc1ccc(-c2cn(C[C@H]3CC4CCN3C[C@@H]4C(=O)NC3CCCCC3)nn2)cc1 (stereo partly shown) [CBK289084] | 138.199
40 | CC(C(=O)Nc1ccc(S(N)(=O)=O)cc1)N(C)Cc1cccs1 (stereo not shown) [CBK305945] | 122.836
41 | Cc1csc2c(C3CCCN(C(=O)C4CC4)C3)nc(C)n12 (stereo not shown) [CBK285212] | 103.337
42 | Cc1cc(CNC(=S)Nc2ccc(S(N)(=O)=O)cc2)nn1C [CBK267077] | 83.8241
43 | CCCC/C=C/c1cnc(N2CCOCC2)c2nccn12 [CBK091256] | 92.5253
44 | CCCCOC(=O)c1ccc(N2C(=O)CC(N3CCN(c4ccc(F)cc4)CC3)C2=O)cc1 (stereo not shown) [CBK265527] | 111.617
45 | O=C(CSc1nnc2c(n1)[nH]c1ccccc12)Nc1ccccc1[N+](=O)[O-] [CBK263195] | 99.3307
46 | COC1(CNC(=O)c2cc3ccccc3[nH]2)CCSC1 (stereo not shown) [CBK304605] | 134.528
47 | Cc1cc(O)n2nc(CC(=O)NCc3nnc4n3CCCCC4)nc2n1 [CBK306989] | 110.752
48 | CS(=O)(=O)N1CCCC(C(=O)Nc2cccc3cccnc23)C1 (stereo not shown) [CBK299783] | 83.2635
49 | CC1CCCCC12NC(=O)N(Cc1csc(-c3cccs3)n1)C2=O (stereo not shown) [CBK305829] | 140.445

Shown in CSV form: part of the list above.
Row,Structure (SMILES),% of control remaining [%]
37,O=C(CN1CCC(c2ccc(F)cc2)CC1)NCc1ccco1 [CBK283641],109.94
38,CN1CC(=O)N(c2ccc(Cl)cc2Cl)C1=O [CBK116319],111.487
39,COc1ccc(-c2cn(C[C@H]3CC4CCN3C[C@@H]4C(=O)NC3CCCCC3)nn2)cc1 (stereo partly shown) [CBK289084],138.199
